From publication PMC10163288
The other results are listed elsewhere or left out.

B1: il10ra_site1_normal_mot_HHH_b1_05357_000000034_0001_23_39_H_._HHH_b2_02453_0001_0000100002_0000002_0_af2pred_dldesign_0_af2pred (protein)
chain: SSSSDVEARLQELLDEARKEKDRLKRSHILLQAHSLANAQKDPALVARVEEESLRIVQESSSSSS
B2: il10ra_site1_sap_14_mot_HHH_b1_03559_000000151_0001_22_39_H_._ems_p1-15H-GBL-16H-GBL-16H_0017_0001_0001_0002_af2_0001_0000300022_0000001_1_0001 (protein)
chain: SSSSDTEVREQVIKLAREIFRLLLRGNPEEAEEVLKELEEVAEKYNDPAAREMVKILRQAVSSSS
B3: il10ra_site1_normal_mot_8756ee2cf497b5429c717dfc0c0bcfd6_0001_000000186_0001_1_13_H_._HHH_b2_06621_af2_0001_0000100003_0000002_0 (protein)
chain: SSSSTESERVAELIREAARAENDGNPEEAEELLEEAKELAEEANNDVLRFQIEYLERLLKESSSS
B4: il10ra_site1_normal_mot_HHH_b1_04940_000000219_0001_1_18_H_._HHH_b1_07612_0001_0000200015_0000001_0 (protein)
chain: SSSSEYVELSLRFARWLYEEGDERALRRVFEAIETILENDGDPEIEEILEEVEELIRKLEGSSSS
B5: il10ra_site1_sap_17_mot_HHH_b2_07145_000000158_0001_24_40_H_._HHH_b1_07351_0001_0000100015_0000002_0_0001 (protein)
chain: SSSSSEEVWELIKELLELLAEGDKEEAERVIQEIEELAEERGNQLLRFLVELLKREVEKSSSSSS
B6: il10ra_site1_normal_mot_HHH_b2_00800_af2_000000047_0001_1_20_H_._HHH_b1_05749_0001_0000400036_0000001_0 (protein)
chain: SSSSQEEYEFVREVIKEARELFEEGDPEKARELLEEAEKEAEELGNPLVKFSLEALLKALRSSSS
B7: il10ra_site1_sap_16_mot_HHH_b2_04274_000000146_0001_1_19_H_._HHH_b2_07966_0001_0000200054_0000002_0_0001 (protein)
chain: SSSSTEHEEAFRLLERVVELHAEGDEEELEELLEEAEKIAQEANNDVILWQLEYLKRLLESSSSS
B8: il10ra_site1_normal_mot_HHH_b1_03333_000000091_0001_1_17_H_._HHH_b1_08629_af2_0001_0000300012_0000001_0 (protein)
chain: SSSSNELYEEVKKLIEEVVELIREGDEERAEELLEQIEELAEKFNNVAVRAALEALRRDLKSSSS
B9: il10ra_site1_normal_mot_HHH_b1_03900_000000129_0001_1_16_H_._HHH_b2_00742_af2_0001_0000100003_0000002_0 (protein)
chain: SSSSSEEERRLYELIKRAARLLIRGNPEEAEKVTEELKRLAEELGNEAAEKAVKILEEAASSSSS
B10: il10ra_site1_normal_mot_HHH_b2_07938_000000207_0001_42_56_H_._HHH_b1_00772_af2_0001_0000100001_0000002_0 (protein)
chain: SSSSSEELEKFVEELVEKFGLSEQQEEYLRAAARALLERGVSEEEIKHMLEIQAELLALGSSSSS

biological target: il10ra, Q13651; experiment: yeast display titration

Apparent Kd, inactive:
B1 no binding seen
B2 no binding seen
B3 no binding seen
B4 no binding seen
B5 no binding seen
B6 no binding seen
B7 no binding seen
B8 no binding seen
B9 no binding seen
B10 no binding seen

A run of entries from further up, for reference:
Apparent Kd, inactive:
B7 no binding seen
B8 no binding seen
